Results from publication PMC7136618, “Defective nucleotide-dependent assembly and membrane fusion in Mfn2 CMT2A variants improved by Bax” (Life Science Alliance, 2020).
Results are given in words; binding and its absence hold for the method and conditions named. In cells and extracts the contact can be indirect. Some entries that bind do so weakly or less than the wild type. Sequences can lack the tags named with a protein.

T1: Mfn2^C390F with a C-terminal 3×FLAG tag (UniProt Q80U63)
T1 sequence: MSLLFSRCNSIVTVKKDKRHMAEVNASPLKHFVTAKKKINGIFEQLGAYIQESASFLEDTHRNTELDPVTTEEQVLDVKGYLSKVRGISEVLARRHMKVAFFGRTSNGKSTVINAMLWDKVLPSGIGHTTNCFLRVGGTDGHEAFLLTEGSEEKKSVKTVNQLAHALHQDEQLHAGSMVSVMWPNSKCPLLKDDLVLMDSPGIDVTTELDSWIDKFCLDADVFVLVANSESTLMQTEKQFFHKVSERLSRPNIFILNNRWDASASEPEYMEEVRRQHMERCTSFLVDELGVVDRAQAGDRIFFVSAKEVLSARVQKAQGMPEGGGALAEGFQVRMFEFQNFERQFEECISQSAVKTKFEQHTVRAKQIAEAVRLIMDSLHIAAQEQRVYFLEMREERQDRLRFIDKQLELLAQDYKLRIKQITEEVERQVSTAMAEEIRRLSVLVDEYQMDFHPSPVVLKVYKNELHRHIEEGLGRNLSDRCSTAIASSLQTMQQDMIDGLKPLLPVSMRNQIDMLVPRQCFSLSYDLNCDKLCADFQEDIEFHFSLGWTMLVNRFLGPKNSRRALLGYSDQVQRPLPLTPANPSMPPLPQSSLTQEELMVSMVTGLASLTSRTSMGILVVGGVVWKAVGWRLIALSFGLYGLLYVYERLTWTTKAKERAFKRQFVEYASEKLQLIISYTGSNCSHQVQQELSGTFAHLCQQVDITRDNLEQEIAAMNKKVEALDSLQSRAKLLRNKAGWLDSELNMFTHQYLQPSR

T2: Mfn2^S378P with a C-terminal 3×FLAG tag (UniProt Q80U63)
T2 sequence: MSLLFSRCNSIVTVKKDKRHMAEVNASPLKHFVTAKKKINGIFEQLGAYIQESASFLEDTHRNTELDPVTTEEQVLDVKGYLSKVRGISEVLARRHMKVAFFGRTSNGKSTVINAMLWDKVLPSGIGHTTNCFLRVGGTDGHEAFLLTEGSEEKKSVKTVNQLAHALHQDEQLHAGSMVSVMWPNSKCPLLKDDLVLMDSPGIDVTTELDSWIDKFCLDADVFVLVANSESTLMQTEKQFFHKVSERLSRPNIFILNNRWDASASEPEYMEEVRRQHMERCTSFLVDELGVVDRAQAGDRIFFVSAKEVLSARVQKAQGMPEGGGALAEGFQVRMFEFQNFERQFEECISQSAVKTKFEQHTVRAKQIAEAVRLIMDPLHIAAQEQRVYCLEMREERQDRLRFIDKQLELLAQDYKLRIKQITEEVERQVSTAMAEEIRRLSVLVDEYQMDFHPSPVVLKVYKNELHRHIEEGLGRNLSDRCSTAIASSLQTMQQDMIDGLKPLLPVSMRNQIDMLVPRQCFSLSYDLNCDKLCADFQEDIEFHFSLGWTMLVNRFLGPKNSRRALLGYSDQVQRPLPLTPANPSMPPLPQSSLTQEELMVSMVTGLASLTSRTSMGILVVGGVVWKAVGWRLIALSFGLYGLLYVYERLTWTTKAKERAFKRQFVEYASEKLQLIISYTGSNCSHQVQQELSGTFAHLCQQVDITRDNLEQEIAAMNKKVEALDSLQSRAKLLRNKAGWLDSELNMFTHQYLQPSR


Legend:
[1] = molecular target: T1, Mfn2^C390F with a C-terminal 3×FLAG tag; assay: co-IP; two populations of isolated mitochondria (Mfn1 + Mfn2-FLAG; Mfn1-eGFP + Mfn2), 50 μg each, mixed, incubated at 37°C for 30 min with BeF3 with or without 2 mM GDP in fusion buffer; lysed in 1.5% DDM; anti-FLAG (DYKDDDDK) magnetic beads; blots with α-Mfn1 and α-Mfn2; endogenous Mfn1 is in cis, Mfn1-eGFP and endogenous Mfn2 are in trans to Mfn2-FLAG
[2] = molecular target: T2, Mfn2^S378P with a C-terminal 3×FLAG tag; assay: as above

binding [1] | binding [2] | Binder
binds | binds | endogenous Mfn1 (protein, UniProt Q811U4 1-741) MAETVSPLKHFVLAKKAITAIFGQLLEFVTEGSHFVEATYRNPELDRIASEDDLVEIQGYRNKLAVIGEVLSRRHMKVAFFGRTSSGKSSVINAMLWDKVLPSGIGHTTNCFLSVEGTDGDKAYLMTEGSDEKKSVKTVNQLAHALHMDKDLKAGCLVHVFWPKAKCALLRDDLVLVDSPGTDVTTELDIWIDKFCLDADVFVLVANSESTLMNTEKHFFHKVNERLSKPNIFILNNRWDASASEPEYMEDVRRQHMERCLHFLVEELKVVSPSEARNRIFFVSAKEVLNSRKHKAQGMPEGGGALAEGFQARLQEFQNFEQTFEECISQSAVKTKFEQHTIRAKQILDTVKNILDSVNVAAAEKRVYSMEEREDQIDRLDFIRNQMNLLTLDVKKKIKEVTEEVANKVSCAMTDEICRLSVLVDEFCSEFHPTPSVLKVYKSELNKHIEDGMGRNLADRCTNEVNASILQSQQEIIENLKPLLPAGIQNKLHTLIPCKKFDLSYDLNCHKLCSDFQEDIVFRFSLGWSSLVHRFLGSTNAQRVLLGLSEPIFQVPRSLASTPTAPSNPAAPDNAAQEELMITLITGLASLTSRTSMGIIVVGGVIWKTVGWKLISVTLSMYGALYLYERLTWTTRAKERAFKQQFVNYATEKLQMIVSFTSANCSHQVQQEMATTFARLCQQVDVTQKHLEEEIARLSKEIDQLEKIQNNSKLLRNKAVQLESELENFSKQFLHPSSGES
binds | binds | Mfn1^WT-eGFP (protein, UniProt Q811U4 1-741) MAETVSPLKHFVLAKKAITAIFGQLLEFVTEGSHFVEATYRNPELDRIASEDDLVEIQGYRNKLAVIGEVLSRRHMKVAFFGRTSSGKSSVINAMLWDKVLPSGIGHTTNCFLSVEGTDGDKAYLMTEGSDEKKSVKTVNQLAHALHMDKDLKAGCLVHVFWPKAKCALLRDDLVLVDSPGTDVTTELDIWIDKFCLDADVFVLVANSESTLMNTEKHFFHKVNERLSKPNIFILNNRWDASASEPEYMEDVRRQHMERCLHFLVEELKVVSPSEARNRIFFVSAKEVLNSRKHKAQGMPEGGGALAEGFQARLQEFQNFEQTFEECISQSAVKTKFEQHTIRAKQILDTVKNILDSVNVAAAEKRVYSMEEREDQIDRLDFIRNQMNLLTLDVKKKIKEVTEEVANKVSCAMTDEICRLSVLVDEFCSEFHPTPSVLKVYKSELNKHIEDGMGRNLADRCTNEVNASILQSQQEIIENLKPLLPAGIQNKLHTLIPCKKFDLSYDLNCHKLCSDFQEDIVFRFSLGWSSLVHRFLGSTNAQRVLLGLSEPIFQVPRSLASTPTAPSNPAAPDNAAQEELMITLITGLASLTSRTSMGIIVVGGVIWKTVGWKLISVTLSMYGALYLYERLTWTTRAKERAFKQQFVNYATEKLQMIVSFTSANCSHQVQQEMATTFARLCQQVDVTQKHLEEEIARLSKEIDQLEKIQNNSKLLRNKAVQLESELENFSKQFLHPSSGES
